# Source: doi:10.1101/2021.08.04.455054
# These are yes or no findings as the source states them, for the method shown. Binding seen in cells or lysates may run through a third protein. Some entries that bind do so weakly or less than the wild type.
# B1: NONO (protein, UniProt Q15233 1-471)
# chain: MQSNKTFNLEKQNHTPRKHHQHHHQQQHHQQQQQQPPPPPIPANGQQASSQNEGLTIDLKNFRKPGEKTFTQRSRLFVGNLPPDITEEEMRKLFEKYGKAGEVFIHKDKGFGFIRLETRTLAEIAKVELDNMPLRGKQLRVRFACHSASLTVRNLPQYVSNELLEEAFSVFGQVERAVVIVDDRGRPSGKGIVEFSGKPAARKALDRCSEGSFLLTTFPRPVTVEPMDQLDDEEGLPEKLVIKNQQFHKEREQPPRFAQPGSFEYEYAMRWKALIEMEKQQQDQVDRNIKEAREKLEMEMEAARHEHQVMLMRQDLMRRQEELRRMEELHNQEVQKRKQLELRQEEERRRREEEMRRQQEEMMRRQQEGFKGTFPDAREQEIRMGQMAMGGAMGINNRGAMPPAPVPAGTPAPPGPATMMPDGTLGLTPPTTERFGQAATMEGIGAIGGTPPAFNRAAPGAEFAPNKRRRY
# B2: Che-1/AATF (protein, UniProt Q9NY61 1-560)
# chain: MAGPQPLALQLEQLLNPRPSEADPEADPEEATAARVIDRFDEGEDGEGDFLVVGSIRKLASASLLDTDKRYCGKTTSRKAWNEDHWEQTLPGSSDEEISDEEGSGDEDSEGLGLEEYDEDDLGAAEEQECGDHRESKKSRSHSAKTPGFSVQSISDFEKFTKGMDDLGSSEEEEDEESGMEEGDDAEDSQGESEEDRAGDRNSEDDGVVMTFSSVKVSEEVEKGRAVKNQIALWDQLLEGRIKLQKALLTTNQLPQPDVFPLFKDKGGPEFSSALKNSHKALKALLRSLVGLQEELLFQYPDTRYLVDGTKPNAGSEEISSEDDELVEEKKQQRRRVPAKRKLEMEDYPSFMAKRFADFTVYRNRTLQKWHDKTKLASGKLGKGFGAFERSILTQIDHILMDKERLLRRTQTKRSVYRVLGKPEPAAQPVPESLPGEPEILPQAPANAHLKDLDEEIFDDDDFYHQLLRELIERKTSSLDPNDQVAMGRQWLAIQKLRSKIHKKVDRKASKGRKLRFHVLSKLLSFMAPIDHTTMNDDARTELYRSLFGQLHPPDEGHGD
# Experiments:
# [1] = target: T1, Che-1/AATF (human (endogenous in Kms27 and RPMI8226)) (UniProt Q9NY61); test: proximity ligation
# T1 sequence: B2 chain
# [2] = target: T1, Che-1/AATF (human (endogenous in Kms27 and RPMI8226)); test: co-IP
# [3] = substrate: T2, NONO (human (endogenous in Kms27 and RPMI8226)) (UniProt Q15233); test: co-IP
# T2 sequence: B1 chain
# [4] = target: T3, SFPQ (human (endogenous in Kms27 and RPMI8226)) (UniProt P23246); test: co-IP
# T3 sequence: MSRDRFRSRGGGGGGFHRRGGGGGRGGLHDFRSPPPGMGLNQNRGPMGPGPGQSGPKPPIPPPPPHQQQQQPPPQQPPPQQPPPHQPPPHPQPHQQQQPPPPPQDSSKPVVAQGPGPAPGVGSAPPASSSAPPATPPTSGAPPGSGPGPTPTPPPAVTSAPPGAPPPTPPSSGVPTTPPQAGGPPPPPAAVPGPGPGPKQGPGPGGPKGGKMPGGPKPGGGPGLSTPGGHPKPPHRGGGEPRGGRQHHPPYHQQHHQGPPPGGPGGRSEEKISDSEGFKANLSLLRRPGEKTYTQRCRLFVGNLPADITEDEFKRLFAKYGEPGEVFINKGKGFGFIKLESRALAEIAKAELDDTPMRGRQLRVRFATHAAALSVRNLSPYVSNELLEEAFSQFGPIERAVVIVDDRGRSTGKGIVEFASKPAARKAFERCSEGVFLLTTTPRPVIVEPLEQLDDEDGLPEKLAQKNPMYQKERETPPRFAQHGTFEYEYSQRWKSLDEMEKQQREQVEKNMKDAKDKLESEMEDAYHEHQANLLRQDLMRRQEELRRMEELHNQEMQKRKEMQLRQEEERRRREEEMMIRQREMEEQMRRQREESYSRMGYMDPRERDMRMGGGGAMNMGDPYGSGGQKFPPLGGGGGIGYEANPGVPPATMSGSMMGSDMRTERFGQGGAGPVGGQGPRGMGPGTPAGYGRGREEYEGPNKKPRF
Binder,binding [1],binding [2],binding [3],binding [4]
B1,binds,binds,–,–
B2,–,–,binds,binds
